This is an account of results in US10822317B2, “Methods and compositions for wound healing” (QBiotics Limited, priority 2013, dated 2020).

For data set [1], the system named is wounds following necrosis and sloughing of spontaneous tumours. As to the kind of experiment: Resolution of wounds after sloughing of spontaneous tumours treated by intratumoural injection, equine. Type of data set: in vivo. The protocol: (§1) Veterinary clinical data on speed of resolution of wounds that formed following necrosis and sloughing of spontaneous tumours that had been treated by intratumoural injection of Compound 1 (30% 1,2 propanediol formulation at either 0.5 or 1.0 mg/mL concentration) in twenty-four companion animals are summarised in Table 17.
(§2) Note that all wounds were managed as open wounds and no bandaging, dressings, lotions or concomitant medications were used in any of these cases.

Data set [2] has the same test system. The data set can be described thus: Resolution of wounds after sloughing of spontaneous tumours treated by intratumoural injection, feline. Conditions: wound size class 0.25 to 12 cm^2, 3 cases. The format is in vivo. As for the experimental part:
as §1, §2

Setting [3] is: wound size class 0.25 to 9 cm^2, 4 cases.
Where [4] appears, read: wound size class 9 to 50 cm^2, 2 cases.

Take `CC=C(C)C(=O)OC1C(C)C2(O)C(C3OC3(CO)C(O)C3(O)C(=O)C(C)=CC32)C2C(C)(C)C12OC(=O)C(C)CC` (stereo not drawn) [Compound 1, 12-tigloyl-13-(2-methylbutanoyl)-6,7-epoxy-4,5,9,12,13,20-hexahydroxy-1-tigliaen-3-one]: the Average wound area was 2.9 ± 1.4 cm^2 in data set [1] (setting [3]), 19.5 ± 14.5 cm^2 in data set [1] (setting [4]) and 4.8 ± 6.3 cm^2 in data set [2]. For the same compound, the Average wound depth in data set [1] (setting [3]) is 7.5 ± 2.9 mm; in data set [1] (setting [4]), 10.0 ± 0 mm; in data set [2], 5.0 ± 4.3 mm.
